The list shows a part of the results. Most entries show no effect beyond the scatter of the controls.
Compound: CN[C@@H]1C[C@H]2O[C@@](C)([C@@H]1OC)n1c3ccccc3c3c4c(c5c6ccccc6n2c5c31)C(=O)NC4 [staurosporine]
Test: log2 fold change of tryptic peptide abundance, ligand vs vehicle (limited proteolysis) (log2 ratio); higher = more trypsin-susceptible (destabilized)
Details: ligand concentration: 20 uM; sample: K562 cleared lysate; digestion: 4 min, 22 C (HT-PELSA RT4min, Orbitrap Astral)

Protein sequences, listed by entry. Tags and fused reporters are not part of them. Lines headed by an entry give the natural chain unless they say otherwise; changes in a name come on top.
UniProt Q92934: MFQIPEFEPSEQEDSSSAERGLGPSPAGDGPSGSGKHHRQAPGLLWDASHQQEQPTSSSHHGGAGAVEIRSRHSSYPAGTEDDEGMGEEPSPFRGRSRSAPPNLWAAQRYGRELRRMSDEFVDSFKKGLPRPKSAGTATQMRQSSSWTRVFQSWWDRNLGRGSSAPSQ
UniProt Q96C03: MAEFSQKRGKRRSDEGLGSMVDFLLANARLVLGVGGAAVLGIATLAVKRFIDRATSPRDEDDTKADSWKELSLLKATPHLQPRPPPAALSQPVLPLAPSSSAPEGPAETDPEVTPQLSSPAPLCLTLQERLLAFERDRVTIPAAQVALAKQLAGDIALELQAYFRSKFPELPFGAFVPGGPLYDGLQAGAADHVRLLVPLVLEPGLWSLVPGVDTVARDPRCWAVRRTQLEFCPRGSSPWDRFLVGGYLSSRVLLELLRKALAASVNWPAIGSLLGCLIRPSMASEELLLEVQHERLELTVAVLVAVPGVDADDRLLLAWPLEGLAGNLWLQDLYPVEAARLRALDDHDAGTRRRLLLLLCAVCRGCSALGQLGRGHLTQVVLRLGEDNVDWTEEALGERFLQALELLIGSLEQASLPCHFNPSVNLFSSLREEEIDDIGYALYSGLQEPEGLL
UniProt Q93075: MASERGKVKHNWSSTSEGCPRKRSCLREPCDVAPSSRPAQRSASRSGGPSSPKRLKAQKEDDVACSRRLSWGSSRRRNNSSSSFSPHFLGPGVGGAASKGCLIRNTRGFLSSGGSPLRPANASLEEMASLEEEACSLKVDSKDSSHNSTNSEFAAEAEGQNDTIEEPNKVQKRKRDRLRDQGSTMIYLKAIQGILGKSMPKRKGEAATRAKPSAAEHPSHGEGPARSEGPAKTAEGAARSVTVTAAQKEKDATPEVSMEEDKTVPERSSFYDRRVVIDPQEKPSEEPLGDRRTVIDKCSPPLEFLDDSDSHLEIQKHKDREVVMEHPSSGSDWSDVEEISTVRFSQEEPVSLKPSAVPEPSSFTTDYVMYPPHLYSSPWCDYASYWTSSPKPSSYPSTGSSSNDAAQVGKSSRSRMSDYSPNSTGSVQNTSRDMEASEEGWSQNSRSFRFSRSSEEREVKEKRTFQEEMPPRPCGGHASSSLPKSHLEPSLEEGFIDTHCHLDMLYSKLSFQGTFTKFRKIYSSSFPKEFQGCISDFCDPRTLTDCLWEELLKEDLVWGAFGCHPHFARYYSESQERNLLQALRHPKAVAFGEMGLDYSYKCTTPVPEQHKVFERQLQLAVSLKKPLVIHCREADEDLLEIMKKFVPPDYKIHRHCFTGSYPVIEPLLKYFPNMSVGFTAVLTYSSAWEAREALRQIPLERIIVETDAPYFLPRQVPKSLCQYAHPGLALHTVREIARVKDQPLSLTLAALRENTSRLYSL
UniProt Q96EB1: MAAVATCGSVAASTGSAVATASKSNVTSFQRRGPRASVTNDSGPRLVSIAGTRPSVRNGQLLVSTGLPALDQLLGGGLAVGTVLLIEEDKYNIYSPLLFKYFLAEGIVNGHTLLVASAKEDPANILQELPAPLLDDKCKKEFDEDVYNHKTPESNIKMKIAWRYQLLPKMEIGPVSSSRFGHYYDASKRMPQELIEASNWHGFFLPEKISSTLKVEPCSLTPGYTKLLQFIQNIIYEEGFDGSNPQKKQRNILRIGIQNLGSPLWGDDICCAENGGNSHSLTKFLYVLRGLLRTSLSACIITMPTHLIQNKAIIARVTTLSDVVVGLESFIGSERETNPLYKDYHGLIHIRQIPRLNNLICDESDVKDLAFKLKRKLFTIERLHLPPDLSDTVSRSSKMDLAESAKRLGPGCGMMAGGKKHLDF
UniProt Q96FB5: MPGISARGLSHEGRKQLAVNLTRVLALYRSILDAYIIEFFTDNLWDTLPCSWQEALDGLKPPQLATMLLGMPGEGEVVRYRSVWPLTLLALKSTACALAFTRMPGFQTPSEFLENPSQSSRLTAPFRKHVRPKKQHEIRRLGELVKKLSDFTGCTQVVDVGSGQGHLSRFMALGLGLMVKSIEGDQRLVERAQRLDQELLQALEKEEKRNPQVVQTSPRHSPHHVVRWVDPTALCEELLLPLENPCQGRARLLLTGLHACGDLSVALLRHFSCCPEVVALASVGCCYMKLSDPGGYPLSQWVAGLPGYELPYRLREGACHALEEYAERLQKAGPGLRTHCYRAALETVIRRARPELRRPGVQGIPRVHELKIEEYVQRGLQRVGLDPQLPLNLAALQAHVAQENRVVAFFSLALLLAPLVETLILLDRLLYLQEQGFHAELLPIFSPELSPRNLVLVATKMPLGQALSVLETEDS
UniProt Q96GI7: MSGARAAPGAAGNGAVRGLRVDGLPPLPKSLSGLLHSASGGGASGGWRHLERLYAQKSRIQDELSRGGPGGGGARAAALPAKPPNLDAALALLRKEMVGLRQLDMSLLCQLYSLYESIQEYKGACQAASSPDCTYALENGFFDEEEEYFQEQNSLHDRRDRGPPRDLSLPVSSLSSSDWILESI
UniProt Q96AZ6: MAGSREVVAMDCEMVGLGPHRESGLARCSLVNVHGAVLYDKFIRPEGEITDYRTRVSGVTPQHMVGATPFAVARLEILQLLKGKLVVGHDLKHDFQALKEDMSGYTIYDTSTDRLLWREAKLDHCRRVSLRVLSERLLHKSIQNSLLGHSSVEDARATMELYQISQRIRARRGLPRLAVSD
UniProt Q96EM0: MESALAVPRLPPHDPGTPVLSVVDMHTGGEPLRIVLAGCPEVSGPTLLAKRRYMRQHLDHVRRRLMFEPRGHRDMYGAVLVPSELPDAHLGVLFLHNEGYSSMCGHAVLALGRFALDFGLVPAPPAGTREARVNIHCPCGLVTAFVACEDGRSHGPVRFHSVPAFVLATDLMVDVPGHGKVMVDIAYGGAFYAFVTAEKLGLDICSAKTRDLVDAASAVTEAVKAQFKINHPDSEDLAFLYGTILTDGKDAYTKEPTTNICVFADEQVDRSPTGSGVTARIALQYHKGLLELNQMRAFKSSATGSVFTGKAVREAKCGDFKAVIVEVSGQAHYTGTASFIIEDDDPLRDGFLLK
UniProt Q96DE0: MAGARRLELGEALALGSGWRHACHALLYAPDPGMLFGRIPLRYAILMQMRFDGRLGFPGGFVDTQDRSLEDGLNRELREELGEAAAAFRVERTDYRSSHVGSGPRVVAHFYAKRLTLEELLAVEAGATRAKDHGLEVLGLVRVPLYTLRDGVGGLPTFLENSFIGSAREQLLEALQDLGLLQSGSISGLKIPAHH
UniProt Q969X6: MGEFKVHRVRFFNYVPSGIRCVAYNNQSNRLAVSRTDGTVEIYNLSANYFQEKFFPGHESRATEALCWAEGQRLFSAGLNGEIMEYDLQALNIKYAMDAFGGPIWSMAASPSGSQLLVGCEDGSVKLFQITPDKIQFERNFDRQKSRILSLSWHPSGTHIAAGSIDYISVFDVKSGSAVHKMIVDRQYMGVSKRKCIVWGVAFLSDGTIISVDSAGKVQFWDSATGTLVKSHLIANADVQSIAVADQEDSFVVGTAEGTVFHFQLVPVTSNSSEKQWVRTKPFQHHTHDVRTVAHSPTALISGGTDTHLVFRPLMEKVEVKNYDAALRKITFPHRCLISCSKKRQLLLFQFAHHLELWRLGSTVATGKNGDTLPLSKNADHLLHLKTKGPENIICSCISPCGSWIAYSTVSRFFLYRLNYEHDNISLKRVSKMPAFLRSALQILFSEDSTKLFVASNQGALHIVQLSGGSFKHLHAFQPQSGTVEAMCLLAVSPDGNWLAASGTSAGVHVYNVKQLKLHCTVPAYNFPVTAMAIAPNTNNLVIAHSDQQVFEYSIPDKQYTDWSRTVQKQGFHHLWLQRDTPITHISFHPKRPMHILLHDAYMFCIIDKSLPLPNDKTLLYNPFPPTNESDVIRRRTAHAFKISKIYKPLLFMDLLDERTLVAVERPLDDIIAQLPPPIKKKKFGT
UniProt Q96EE3: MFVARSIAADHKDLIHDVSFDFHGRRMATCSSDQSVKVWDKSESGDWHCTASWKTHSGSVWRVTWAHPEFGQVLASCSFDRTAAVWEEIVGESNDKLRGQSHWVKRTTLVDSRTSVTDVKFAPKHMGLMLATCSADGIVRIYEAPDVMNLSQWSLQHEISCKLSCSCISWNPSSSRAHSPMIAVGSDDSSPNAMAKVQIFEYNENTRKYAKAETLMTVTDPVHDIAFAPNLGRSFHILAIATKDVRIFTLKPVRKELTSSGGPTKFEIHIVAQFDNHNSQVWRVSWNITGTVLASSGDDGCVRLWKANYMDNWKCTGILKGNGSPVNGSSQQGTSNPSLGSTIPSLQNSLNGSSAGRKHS
UniProt Q92922, whole entry: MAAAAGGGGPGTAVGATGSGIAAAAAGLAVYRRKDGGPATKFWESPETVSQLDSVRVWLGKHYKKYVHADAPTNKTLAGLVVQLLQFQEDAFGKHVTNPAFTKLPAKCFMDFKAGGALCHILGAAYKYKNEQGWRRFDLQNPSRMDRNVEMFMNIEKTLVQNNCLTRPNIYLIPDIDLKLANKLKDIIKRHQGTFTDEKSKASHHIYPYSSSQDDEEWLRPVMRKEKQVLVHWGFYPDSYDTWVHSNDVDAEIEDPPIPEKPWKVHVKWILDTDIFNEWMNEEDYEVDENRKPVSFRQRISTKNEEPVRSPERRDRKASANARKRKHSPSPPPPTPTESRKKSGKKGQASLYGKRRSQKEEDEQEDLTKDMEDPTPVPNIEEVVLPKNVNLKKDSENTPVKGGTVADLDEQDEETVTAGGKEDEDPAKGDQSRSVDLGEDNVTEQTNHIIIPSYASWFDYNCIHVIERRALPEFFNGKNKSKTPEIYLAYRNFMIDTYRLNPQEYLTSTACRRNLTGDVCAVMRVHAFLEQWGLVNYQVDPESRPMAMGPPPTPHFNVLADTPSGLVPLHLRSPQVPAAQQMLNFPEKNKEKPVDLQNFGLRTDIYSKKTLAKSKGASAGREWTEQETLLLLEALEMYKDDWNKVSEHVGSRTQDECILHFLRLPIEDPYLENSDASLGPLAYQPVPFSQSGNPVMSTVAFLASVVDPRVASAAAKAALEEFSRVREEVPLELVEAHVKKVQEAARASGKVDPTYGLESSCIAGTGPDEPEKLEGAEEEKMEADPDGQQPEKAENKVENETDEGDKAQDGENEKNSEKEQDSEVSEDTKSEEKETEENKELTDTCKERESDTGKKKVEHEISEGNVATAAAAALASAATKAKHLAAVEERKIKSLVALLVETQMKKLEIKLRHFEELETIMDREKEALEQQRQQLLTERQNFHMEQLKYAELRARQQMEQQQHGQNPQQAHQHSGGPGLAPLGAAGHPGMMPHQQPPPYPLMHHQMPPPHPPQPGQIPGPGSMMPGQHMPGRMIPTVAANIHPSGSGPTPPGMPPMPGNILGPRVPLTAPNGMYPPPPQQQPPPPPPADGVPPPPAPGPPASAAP
UniProt Q93073: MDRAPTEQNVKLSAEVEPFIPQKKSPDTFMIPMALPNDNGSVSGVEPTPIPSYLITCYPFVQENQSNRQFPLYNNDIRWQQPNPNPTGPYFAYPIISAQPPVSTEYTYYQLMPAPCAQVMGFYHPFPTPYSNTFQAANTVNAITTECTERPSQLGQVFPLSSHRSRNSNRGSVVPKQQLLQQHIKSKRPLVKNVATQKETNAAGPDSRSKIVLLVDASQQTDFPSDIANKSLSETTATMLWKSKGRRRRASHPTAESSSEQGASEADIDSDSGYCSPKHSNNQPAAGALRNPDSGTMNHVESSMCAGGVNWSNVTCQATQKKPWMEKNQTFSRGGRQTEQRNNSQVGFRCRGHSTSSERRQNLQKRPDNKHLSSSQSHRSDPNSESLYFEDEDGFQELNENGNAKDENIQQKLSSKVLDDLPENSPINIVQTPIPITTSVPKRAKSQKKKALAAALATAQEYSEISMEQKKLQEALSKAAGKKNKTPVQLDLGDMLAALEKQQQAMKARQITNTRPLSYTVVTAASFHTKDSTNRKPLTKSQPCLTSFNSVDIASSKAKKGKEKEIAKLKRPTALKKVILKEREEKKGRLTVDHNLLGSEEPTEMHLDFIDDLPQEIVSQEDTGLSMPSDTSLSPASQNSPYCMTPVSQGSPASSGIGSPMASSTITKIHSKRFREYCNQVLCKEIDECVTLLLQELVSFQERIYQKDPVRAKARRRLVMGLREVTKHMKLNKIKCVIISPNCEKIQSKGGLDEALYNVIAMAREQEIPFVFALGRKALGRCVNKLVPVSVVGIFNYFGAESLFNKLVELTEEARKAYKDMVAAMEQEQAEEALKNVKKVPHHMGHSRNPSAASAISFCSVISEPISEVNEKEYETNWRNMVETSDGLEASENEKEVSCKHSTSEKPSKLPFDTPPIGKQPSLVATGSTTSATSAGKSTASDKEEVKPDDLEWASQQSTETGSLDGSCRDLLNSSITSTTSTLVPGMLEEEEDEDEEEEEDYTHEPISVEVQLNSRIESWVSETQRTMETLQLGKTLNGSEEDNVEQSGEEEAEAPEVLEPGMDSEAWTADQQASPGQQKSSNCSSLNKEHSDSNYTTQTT

| Target | log2 fold change |
| --- | --- |
| BAD (peptide sequence: SAGTATQMR, peptide start residue: 134) (UniProt Q92934) | 0.382 |
| UniProt Q96C03 (peptide sequence: LVLGVGGAAVLGIATLAVKR, peptide start residue: 30) | -0.00909 |
| TATDN2 (peptide sequence: AKPSAAEHPSHGEGPAR, peptide start residue: 210) (UniProt Q93075) | -0.274 |
| HDAC10 (peptide sequence: MLQCHPHLVA, peptide start residue: 660) (UniProt Q969S8) | 0.471 |
| ELP4 (peptide sequence: KEFDEDVYNHKTPESNIK, peptide start residue: 140) (UniProt Q96EB1) | 0.511 |
| UniProt Q96FB5 (peptide sequence: HSPHHVVR, peptide start residue: 220) | 0.206 |
| UniProt Q969U6 (peptide sequence: TFFSWLASQR, peptide start residue: 556) | -0.314 |
| FAM89A (peptide sequence: IQDELSR, peptide start residue: 60) (UniProt Q96GI7) | -0.21 |
| USP9X (peptide sequence: AICLDHAK, peptide start residue: 1059) (UniProt Q93008) | 0.298 |
| ISG20 (peptide sequence: FIRPEGEITDYR, peptide start residue: 42) (UniProt Q96AZ6) | -0.342 |
| APH1A (peptide sequence: VMVYSALR, peptide start residue: 253) (UniProt Q96BI3) | -0.155 |
| UniProt Q96ES7 (peptide sequence: SRSEHNLVNIQK, peptide start residue: 29) | 0.804 |
| UniProt Q96EM0 (peptide sequence: FALDFGLVPAPPAGTR, peptide start residue: 114) | -0.218 |
| CHMP6 (peptide sequence: MHQVMSIEEVER, peptide start residue: 114) (UniProt Q96FZ7) | -0.476 |
| NUDT16 (peptide sequence: SSHVGSGPR, peptide start residue: 97) (UniProt Q96DE0) | 0.252 |
| VTI1A (peptide sequence: AHLLDNTER, peptide start residue: 116) (UniProt Q96AJ9) | 0.141 |
| GPKOW (peptide sequence: ELQSVKPQEAPK, peptide start residue: 56) (UniProt Q92917) | -0.0933 |
| UniProt Q969X6 (peptide sequence: QLLLFQFAHHLELWR, peptide start residue: 345) | 0.656 |
| UniProt Q96EY5 (peptide sequence: SLADIEEEYNYGFVVEK, peptide start residue: 246) | -0.461 |
| SEH1L (peptide sequence: VWDKSESGDWHCTASWK, peptide start residue: 38) (UniProt Q96EE3) | -0.485 |
| IMP4 (peptide sequence: WHPYTNTAR, peptide start residue: 275) (UniProt Q96G21) | 0.127 |
| UniProt Q969J3 (peptide sequence: LQEIPTFQPLLK, peptide start residue: 56) | -0.544 |
| SMARCC1 (peptide sequence: KVEHEISEGNVATAAAAALASAATKAK, peptide start residue: 856) (UniProt Q92922) | -0.477 |
| SECISBP2L (peptide sequence: GGLDEALYNVIAMAR, peptide start residue: 750) (UniProt Q93073) | -0.525 |
| FAHD2A (peptide sequence: RALAAQLPVLPR, peptide start residue: 82) (UniProt Q96GK7) | -0.255 |
| SNRNP40 (peptide sequence: FVYVWDTTSR, peptide start residue: 308) (UniProt Q96DI7) | -0.245 |

Looked up one by one from the list above, 2 records:

| Target | log2 fold change |
| --- | --- |
| FAM89A (peptide sequence: IQDELSR, peptide start residue: 60) (UniProt Q96GI7) | -0.21 |
| UniProt Q96C03 (peptide sequence: LVLGVGGAAVLGIATLAVKR, peptide start residue: 30) | -0.00909 |

— the supplement of paper PMC12819154, “High-throughput peptide-centric local stability assay extends protein–ligand identification to membrane proteins, tissues and bacteria” (Nature Structural & Molecular Biology, 2025)
